Results are given in words; binding and its absence hold for the method and conditions named. In cells and extracts the contact can be indirect. Some binding calls cover weakened binding; strength is not graded here.
What was measured:
[1] = molecular target: Wild-type p53 (human (endogenous in HCT116)) (UniProt P04637); test: proximity ligation; PLA of p53 and ATF2 in HCT116 control cells (no 5-FU); Suppl. Figure S5b
[2] = molecular target: Wild-type p53 (human (endogenous in HCT116)) (UniProt P04637); test: proximity ligation; PLA of p53 and ATF2 in HCT116 cells upon 5-FU exposure; Suppl. Figure S5b

binding [2]: binds
B1: ATF2 (protein, UniProt P15336 1-505)
chain: MKFKLHVNSARQYKDLWNMSDDKPFLCTAPGCGQRFTNEDHLAVHKHKHEMTLKFGPARNDSVIVADQTPTPTRFLKNCEEVGLFNELASPFENEFKKASEDDIKKMPLDLSPLATPIIRSKIEEPSVVETTHQDSPLPHPESTTSDEKEVPLAQTAQPTSAIVRPASLQVPNVLLTSSDSSVIIQQAVPSPTSSTVITQAPSSNRPIVPVPGPFPLLLHLPNGQTMPVAIPASITSSNVHVPAAVPLVRPVTMVPSVPGIPGPSSPQPVQSEAKMRLKAALTQQHPPVTNGDTVKGHGSGLVRTQSEESRPQSLQQPATSTTETPASPAHTTPQTQSTSGRRRRAANEDPDEKRRKFLERNRAAASRCRQKRKVWVQSLEKKAEDLSSLNGQLQSEVTLLRNEVAQLKQLLLAHKDCPVTAMQKKSGYHTADKDDSSEDISVPSSPHTEAIQHSSVSTSNGVSSTSKAEAVATSVLTQMADQSTEPALSQIVMAPSSQSQPSGS
binding [1]: no binding (condition: control cells without 5-FU)

— publication PMC10223906
